Inconclusive results, whose numbers are uncertain, are shown with a selection of clear calls. Where the call is inconclusive, the potency comes from a doubtful curve fit. Activity calls are given as the source filed them. Rule for the calls: active = hit-call score of the fitted dose curve at least 0.9, where 1 is the maximum; inconclusive = response in the unintended direction; inactive = score below 0.9.
What follows are molecules tested against rat Adrenergic, Alpha 1, Non-selective Receptor (Adra1), Adra1a (gene 29412) (UniProt P43140) (assay: NVS_GPCR_rAdra1_NonSelective: NovaScreen (NVS) G Protein-Coupled Receptor Assay for rat Adrenergic, Alpha 1, Non-selective Receptor (Adra1) (AID 2283289)).
In short: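 Rat forebrain membranes; radioligand displacement read by filter-based scintillation counting 1 h after dosing. Primary screen in duplicate at 25 uM; hits (e.g. ≥30% inhibition) rerun as concentration–response to 50 uM max. Fitted versus DMSO.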

Chains of the proteins cited; added tags and fusions are not shown. Lines headed by an entry give the natural chain unless they say otherwise; changes in a name come on top.
UniProt P43140: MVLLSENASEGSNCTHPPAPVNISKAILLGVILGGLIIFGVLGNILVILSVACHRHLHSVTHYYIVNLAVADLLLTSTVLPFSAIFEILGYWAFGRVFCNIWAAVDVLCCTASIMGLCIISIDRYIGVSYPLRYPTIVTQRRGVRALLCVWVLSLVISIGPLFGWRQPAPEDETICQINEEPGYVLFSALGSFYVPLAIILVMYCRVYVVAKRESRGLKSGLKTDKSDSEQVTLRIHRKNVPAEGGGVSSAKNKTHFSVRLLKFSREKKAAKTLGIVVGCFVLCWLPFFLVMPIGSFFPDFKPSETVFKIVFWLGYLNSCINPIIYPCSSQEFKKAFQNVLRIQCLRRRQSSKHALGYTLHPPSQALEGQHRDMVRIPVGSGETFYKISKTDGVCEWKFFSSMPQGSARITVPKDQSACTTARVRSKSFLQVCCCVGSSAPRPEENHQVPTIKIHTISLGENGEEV
UniProt P35372, whole entry, looked up: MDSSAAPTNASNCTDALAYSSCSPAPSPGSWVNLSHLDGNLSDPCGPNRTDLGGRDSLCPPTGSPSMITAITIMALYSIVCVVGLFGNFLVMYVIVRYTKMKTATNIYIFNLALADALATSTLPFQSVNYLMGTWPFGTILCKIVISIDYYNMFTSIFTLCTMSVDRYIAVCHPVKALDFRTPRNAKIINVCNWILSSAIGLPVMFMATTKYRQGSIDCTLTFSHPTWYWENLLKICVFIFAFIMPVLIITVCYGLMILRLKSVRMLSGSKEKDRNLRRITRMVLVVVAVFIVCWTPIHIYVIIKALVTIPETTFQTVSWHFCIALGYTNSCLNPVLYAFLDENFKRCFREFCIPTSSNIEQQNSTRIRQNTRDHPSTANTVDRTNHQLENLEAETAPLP
UniProt P56481: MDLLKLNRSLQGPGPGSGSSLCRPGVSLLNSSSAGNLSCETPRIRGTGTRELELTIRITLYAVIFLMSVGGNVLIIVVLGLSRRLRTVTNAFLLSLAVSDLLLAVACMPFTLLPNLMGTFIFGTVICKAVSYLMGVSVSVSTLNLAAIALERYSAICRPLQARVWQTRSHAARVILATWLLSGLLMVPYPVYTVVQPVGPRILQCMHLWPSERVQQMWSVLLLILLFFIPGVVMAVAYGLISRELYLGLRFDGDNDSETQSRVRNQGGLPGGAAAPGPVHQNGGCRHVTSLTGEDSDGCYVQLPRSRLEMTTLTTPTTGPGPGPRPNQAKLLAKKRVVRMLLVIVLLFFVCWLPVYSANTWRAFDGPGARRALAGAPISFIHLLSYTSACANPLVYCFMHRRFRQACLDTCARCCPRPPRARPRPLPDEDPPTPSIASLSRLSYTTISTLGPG
UniProt O70528: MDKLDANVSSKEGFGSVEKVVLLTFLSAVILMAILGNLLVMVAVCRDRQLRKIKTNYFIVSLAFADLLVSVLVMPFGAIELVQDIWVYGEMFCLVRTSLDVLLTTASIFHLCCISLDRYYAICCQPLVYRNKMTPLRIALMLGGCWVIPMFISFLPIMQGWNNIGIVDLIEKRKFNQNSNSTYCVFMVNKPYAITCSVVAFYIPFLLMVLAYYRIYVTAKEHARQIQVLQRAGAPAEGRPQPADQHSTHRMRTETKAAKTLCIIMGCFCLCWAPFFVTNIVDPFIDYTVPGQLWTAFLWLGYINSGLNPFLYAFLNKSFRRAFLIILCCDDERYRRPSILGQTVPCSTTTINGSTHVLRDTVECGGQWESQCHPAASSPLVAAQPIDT
UniProt P19327, whole entry, looked up: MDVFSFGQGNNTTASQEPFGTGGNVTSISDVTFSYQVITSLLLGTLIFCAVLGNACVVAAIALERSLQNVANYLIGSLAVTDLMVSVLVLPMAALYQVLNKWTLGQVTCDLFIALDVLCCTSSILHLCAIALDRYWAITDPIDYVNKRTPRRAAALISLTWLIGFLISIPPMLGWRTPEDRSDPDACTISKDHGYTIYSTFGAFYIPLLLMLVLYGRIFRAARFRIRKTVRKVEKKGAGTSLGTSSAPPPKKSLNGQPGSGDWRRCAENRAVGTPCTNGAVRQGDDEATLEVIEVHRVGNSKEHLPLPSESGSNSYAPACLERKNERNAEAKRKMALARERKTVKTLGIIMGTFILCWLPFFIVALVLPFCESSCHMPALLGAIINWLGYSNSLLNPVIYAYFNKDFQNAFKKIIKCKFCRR

Q: Which AC50 does the source give for `CN(C)c1ccc(C(=C2C=CC(=[N+](C)C)C=C2)c2ccc(N(C)C)cc2)cc1` here?
A: The AC50 was active: 4.81 µM.

Q: `CCCCc1ccc2c(n1)[C@@H](c1ccc(OC)cc1C[C@H](C)C(=O)O)[C@H](C(=O)O)[C@H]2c1ccc2c(c1)OCO2` was tested. Which AC50 did it give?
A: The AC50 was inconclusive: 27.5 µM.

Q: Which outcome does the source give for `NC(=Nc1ccccc1)Nc1ccccc1` here?
A: Its outcome is “inactive”.

Q: Which AC50 does the source give for `CN(C)C(=O)NC1(c2ccccc2)CCN(CCC[C@]2(c3ccc(Cl)c(Cl)c3)CCCN(C(=O)c3ccccc3)C2)CC1` here?
A: Its AC50 is active: 6.25 µM.

Each molecule was assayed against human Opioid Receptor Mu (Opiate Mu), OPRM1 (gene 4988) (UniProt P35372) (assay: NVS_GPCR_hOpiate_mu: NovaScreen (NVS) G Protein-Coupled Receptor Assay for human Opioid Receptor Mu (Opiate Mu) (AID 2283290);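 note: hits lower bound tracer signal versus DMSO meaning displacement of the ligand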).
In short: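 Cell-free radioligand binding to membranes from CHO cells expressing the receptor; bound tracer measured by filter-based scintillation counting 2.5 hours after dosing. Loss of signal versus DMSO baseline reflects displacement; primary screen at 25 uM in duplicate, actives followed up in concentration series.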

Q: `O=c1[nH]cc(F)c(=O)[nH]1` was tested. Which AC50 did it give?
A: Its AC50 is inconclusive: 25.5 µM.

Q: For `C=CC/C=C/C/C=C/C/C=C/C`, which AC50 is on record?
A: The AC50 was inconclusive: 6.75 µM.

Q: Which AC50 does the source give for `CC1(C)[C@H]2CC[C@]1(C)C(=O)C2` here?
A: The AC50 was inconclusive: 0.118 µM.

Q: Which AC50 does the source give for `O=C1CCCCC1` here?
A: The AC50 was inconclusive: 0.0278 µM.

Q: How did the AC50 turn out when `C/C=C/C(=O)C1=C(C)CCCC1(C)C` was run?
A: The AC50 was inconclusive: 0.514 µM.

Q: Which AC50 does the source give for `CCCC(C)CCC(C)=O` (configuration not stated) here?
A: Its AC50 is inconclusive: 25 µM.

Q: Which outcome does the source give for `Nc1nc(=S)c2[nH]cnc2[nH]1` here?
A: The outcome was “inactive”.

These molecules were tested on guinea pig Atrionatriuretic Peptide Receptor A (ANPA), gene 100135578 (assay: NVS_GPCR_gANPA: NovaScreen (NVS) G Protein-Coupled Receptor Assay for guinea pig Atrionatriuretic Peptide Receptor A (ANPA) (AID 2283291)).
In short: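 Radioligand binding to guinea pig cerebellar membranes was measured after 1 h by filter-based scintillation counting. Chemicals were tested in duplicate at 25 uM, with hits run in concentration-response to a maximum of 50 uM. Binding loss was fitted against DMSO.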

Q: How did the AC50 turn out when `CN1CCN(c2ccccc2/C=C2\SCCN(c3ccc(Cl)c(Cl)c3)C2=O)CC1` was run?
A: Its AC50 is inconclusive: 8.35 µM.

Q: For `CNC(=O)[C@H]1O[C@@H](n2cnc3c(NCc4cc(Cl)ccc4OCc4cc(C)no4)ncnc32)[C@H](O)[C@@H]1N`, which AC50 is on record?
A: The AC50 was inconclusive: 25 µM.

Q: Which AC50 does the source give for `Cc1cc(CCN2CCN(c3nsc4ccccc34)CC2)cc2c1NC(=O)CC2(C)C` here?
A: Its AC50 is inconclusive: 30.1 µM.

Q: How did the AC50 turn out when `COC(=O)CC(=O)OC` was run?
A: The AC50 was inconclusive: 5.08 µM.

Q: For `CN(C[C@@H](CC[N+]12CCC(C3CCCCC3)(CC1)CC2)c1ccc(Cl)c(Cl)c1)C(=O)c1cc(C(F)(F)F)cc(C(F)(F)F)c1`, which AC50 is on record?
A: The AC50 was active: 42.3 µM.

Q: With `CCCCCCCC(=O)OC` as the molecule, how does the AC50 read?
A: The AC50 was inconclusive: 25 µM.

Q: `Clc1ccccc1C(c1ccccc1)(c1ccccc1)n1ccnc1` was tested. Which AC50 did it give?
A: The AC50 was inconclusive: 25 µM.

Q: How did the AC50 turn out when `CCCCCCC(CCCCCCCCCCC(=O)OCC(COC(C)=O)OC(C)=O)OC(C)=O` (configuration not stated) was run?
A: The AC50 was inconclusive: 12.5 µM.

Q: `c1ccc2c(c1)-c1cccc3c1c-2cc1ccccc13` was tested. Which AC50 did it give?
A: The AC50 was inconclusive: 25 µM.

Q: Which AC50 does the source give for `CNCc1cc(F)ccc1Oc1ccc(Cl)c(Cl)c1` here?
A: The AC50 was inconclusive: 25 µM.

Q: With `Cc1nccn1-c1ccc(Sc2cccc(C3(C(N)=O)CCOCC3)c2)cc1` as the molecule, how does the outcome read?
A: The outcome was “inactive”.

The molecules below were run against mouse Cholecystokinin, CCK2 Receptor (CCKB), Cckbr (gene 12426) (UniProt P56481) (assay: NVS_GPCR_mCKKBCentral: NovaScreen (NVS) G Protein-Coupled Receptor Assay for mouse Cholecystokinin, CCK2 Receptor (CCKB) (AID 2283293)).
In short: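 Radioligand displacement binding on mouse forebrain membranes, 2 h exposure, filter-based scintillation counting. Primary screen in duplicate at 25 uM; actives (e.g. ≥30% inhibition) retested in concentration-response up to 50 uM; loss of binding signal relative to DMSO.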

Q: `CN(C[C@@H](CC[N+]12CCC(C3CCCCC3)(CC1)CC2)c1ccc(Cl)c(Cl)c1)C(=O)c1cc(C(F)(F)F)cc(C(F)(F)F)c1` was tested. Which AC50 did it give?
A: The AC50 was inconclusive: 41.3 µM.

Q: How did the AC50 turn out when `OC12N=C(c3ccccc3)SC1Cc1cc(Cl)ccc12` (configuration not stated) was run?
A: The AC50 was inconclusive: 40.5 µM.

Q: How did the outcome turn out when `O=C(O)c1ccccc1-n1cc(C(=O)O)c(=O)c2cc(Nc3c(F)cc(F)cc3Cl)c(Cl)cc21` was run?
A: The outcome was “inactive”.

What follows are molecules tested against guinea pig Serotonin, 5-Hydroxytryptamine Receptor 4 (5HT4), HTR4 (gene 100135548) (UniProt O70528) (assay: NVS_GPCR_g5HT4: NovaScreen (NVS) G Protein-Coupled Receptor Assay for guinea pig Serotonin, 5-Hydroxytryptamine Receptor 4 (5HT4) (AID 2283294)).
In short: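 Guinea pig striatal membranes; radioligand competitive displacement, filtration and scintillation counting after 1 h. Primary screen in duplicate at 25 uM; actives then tested in concentration series; loss of binding signal fitted relative to DMSO.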

Q: How did the AC50 turn out when `Cc1ccc(C(C)(C)C)c(O)c1` was run?
A: Its AC50 is inconclusive: 25 µM.

Q: `CN(C[C@@H](CC[N+]12CCC(C3CCCCC3)(CC1)CC2)c1ccc(Cl)c(Cl)c1)C(=O)c1cc(C(F)(F)F)cc(C(F)(F)F)c1` was tested. Which AC50 did it give?
A: Its AC50 is active: 8.02 µM.

Q: `CCCCCCCC(=O)OC` was tested. Which AC50 did it give?
A: Its AC50 is inconclusive: 25 µM.

Q: With `Cn1cnc([N+](=O)[O-])c1Sc1ncnc2nc[nH]c12` as the molecule, how does the AC50 read?
A: Its AC50 is inconclusive: 6.62 µM.

Q: For `Cc1nccn1-c1ccc(Sc2cccc(C3(C(N)=O)CCOCC3)c2)cc1`, which outcome is on record?
A: The outcome was “inactive”.

Q: For `COCC(C)OCC(C)OCC(C)O` (configuration not stated), which AC50 is on record?
A: The AC50 was inconclusive: 25 µM.

These molecules were tested against rat Serotonin, 5-Hydroxytryptamine Receptor (5HT), Non-Selective Binding, Htr1a (gene 24473) (UniProt P19327) (assay: NVS_GPCR_r5HT_NonSelective: NovaScreen (NVS) G Protein-Coupled Receptor Assay for rat Serotonin, 5-Hydroxytryptamine Receptor (5HT), Non-Selective Binding (AID 2283295)).
In short: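 Radioligand displacement on rat cortical membranes, 1 h incubation, filter-based scintillation counting. Primary duplicates at 25 uM, actives retested in concentration series; loss of signal fitted against DMSO as baseline.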

Q: Which AC50 does the source give for `CN(C)CCOC(c1ccccc1)c1ccccc1` here?
A: The AC50 was active: 7.06 µM.

Q: How did the outcome turn out when `O=[N+]([O-])c1ccc(O)cc1` was run?
A: Its outcome is “inactive”.

Q: `COc1cccc(-c2ccc(/C=C\CN3CCCCCC3)cc2Cl)c1` was tested. Which AC50 did it give?
A: The AC50 was inconclusive: 0.0343 µM.

These molecules were tested on rat Adrenergic, Alpha 1B Receptor (Adra1B), gene 24173 (assay: NVS_GPCR_rAdra1B: NovaScreen (NVS) G Protein-Coupled Receptor Assay for rat Adrenergic, Alpha 1B Receptor (Adra1B) (AID 2283297)).
In short: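 Rat liver membranes, radioligand displacement with filter-based scintillation detection, 1 h incubation. Primary screen in duplicate at 25 uM; actives retested in concentration series; activity relative to DMSO.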

Q: For `CC1=C(C)S(=O)(=O)CCS1(=O)=O`, which AC50 is on record?
A: The AC50 was inconclusive: 0.041 µM.

Q: Which AC50 does the source give for `CC(C)CCCCCCOC(=O)CCCCC(=O)OCCCCCCC(C)C` here?
A: Its AC50 is inconclusive: 44.9 µM.

Q: Which outcome does the source give for `CN(C)CCCN(C)CCCN(C)C` here?
A: The outcome was “inactive”.

Q: How did the AC50 turn out when `CC[C@H]1CC[C@H](NCc2cc3c(cc2OC)[C@H]2C[C@H]2C(=O)N3C)[C@H](c2ccccc2)N1` was run?
A: The AC50 was active: 17.2 µM.

Q: How did the AC50 turn out when `COc1cccc(-c2ccc(/C=C\CN3CCCCCC3)cc2Cl)c1` was run?
A: Its AC50 is active: 18.7 µM.

Q: `NC(=Nc1ccccc1)Nc1ccccc1` was tested. Which AC50 did it give?
A: The AC50 was inconclusive: 0.272 µM.

Q: `Cc1nccn1-c1ccc(Sc2cccc(C3(C(N)=O)CCOCC3)c2)cc1` was tested. Which AC50 did it give?
A: Its AC50 is inconclusive: 0.0842 µM.

Q: Which AC50 does the source give for `O=c1[nH]cnc2c1ncn2[C@H]1CC[C@@H](CO)O1` here?
A: The AC50 was inconclusive: 0.159 µM.

From PubChem BioAssay (EPA / NIEHS)
